PubChem BioAssay AID686937 | Drosophila RNAi Screening Center, 2013

- Assay: 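Genes whose loss weakens secretory pathway function in fly cells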 (primary screen)
- Cell system: Drosophila S2 cells expressing secreted horseradish peroxidase
- Reagent: long dsRNA against Drosophila genes
- Duration: about 5.5 days (5 days dsRNA, then 12 h reporter induction)
- Conditions: reporter expression induced after 5 days of dsRNA, read 12 h later; inducer not stated
- Measured: 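Chemiluminescent measurement of peroxidase in the medium 12 h after reporter induction, following 5 days of dsRNA, given as a z-score per plate; higher means more secretion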
- Reading the numbers: z-score: higher = more reporter secreted into medium
In all, the deposit lists about 23,000 reagents; below is an unselected part of those that have a named target and a result. 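Reduced-secretion tags in replicate 1 do not always agree with the z-scores; no criterion for assigning the tags was given.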 Names joined by + are all predicted targets of the reagent. Reagent sequences are not shown. Not stated in the record: the amount of reagent.

target,dsRNA,"z-score, replicate 1","z-score, replicate 2","z-score, replicate 3","z-score, replicate 4","phenotype, replicate 1"
DIP-kappa (Dpr-interacting protein kappa),DRSC01336,-1.82,-0.41,,,reduced secretion
DIP-kappa (Dpr-interacting protein kappa),DRSC01337,-0.38,0.27,,,
Pdfr (Pigment-dispersing factor receptor),DRSC18614,-0.13,-0.55,,,
Lcch3 (Ligand-gated chloride channel homolog 3),DRSC22175,0.14,0.12,,,
Cbp80 (cap binding protein 80),DRSC18450,0.29,0.48,,,
CG13367,DRSC18485,0.6,0.5,,,
CG13367,DRSC18486,0.51,0.45,,,
CG5323,DRSC06929,0.11,-0.15,,,
CG8326,DRSC20103,0.15,0.16,,,
soti (scotti),DRSC16432,0.46,0.39,,,
CG18599,DRSC15357,-3.86,0.34,0.25,-4.64,
CG18599,DRSC22585,-3.74,-2.75,,,reduced secretion
Gel (Gelsolin),DRSC12350,0.09,0.01,,,
aurB (aurora B),DRSC03548,-0.45,-0.48,,,
olf413,DRSC11543,0.54,-0.2,,,
olf413,DRSC11679,0.42,0.19,0.04,0.41,
olf413,DRSC11721,0.18,0.53,,,
olf413,DRSC11833,0.17,0.44,-0.14,0.28,
Hesr (HES-related),DRSC19965,0.27,0.27,,,
CG32119,DRSC09248,0.28,0.53,0.41,0.26,
CG32119,DRSC21462,0.9,0.88,,,
dgt5 (dim gamma-tubulin 5),DRSC07280,0.51,0.42,,,
knon (knotted onions),DRSC07049,0.29,0.26,,,
CG42254 (retired record),DRSC06194,0.08,0.18,,,
sqh (spaghetti squash),DRSC18837,-0.32,0.15,,,
PPP1R15 (Protein phosphatase 1 regulatory subunit 15),DRSC04422,-0.44,-0.22,,,
CG42365,DRSC04266,0.05,0.15,,,
CG34265,DRSC08030,0.12,0.21,,,
CG5112,DRSC15718,0.34,0.39,,,
CR9337 (pseudo),DRSC03212,0.35,0.11,,,
rogdi,DRSC10906,0.27,0.3,,,
nac (neuronally altered carbohydrate),DRSC16520,-1.45,-0.22,,,
Sas-6 (Spindle assembly abnormal 6),DRSC15061,0.05,0.36,,,
Or65a (Odorant receptor 65a),DRSC08808,-0.17,0.33,,,
Ufsp1 (UFM1 specific peptidase 1),DRSC04958,0.19,,,,
pirk (poor Imd response upon knock-in),DRSC04269,-0.09,0.19,,,
p23,DRSC15158,0.83,0.75,,,
CG15916,DRSC19740,0.41,0.45,,,
CG10562,DRSC14257,0.11,0.43,,,
"SmydA-1 (SET and MYND domain containing, arthropod-specific, member 1)",DRSC07200,0.17,0.21,,,
Jhbp6 (Juvenile hormone binding protein 6),DRSC11714,0.45,0.54,,,
"GAPsec (GTPase activating protein, SECIS-dependent read-through)",DRSC10564,0.13,-0.07,,,
CG9067,DRSC07328,0.32,-0.03,,,

Next part, starting with the last 9 of the part before.
target,dsRNA,"z-score, replicate 1","z-score, replicate 2","z-score, replicate 3","z-score, replicate 4","phenotype, replicate 1"
Ufsp1 (UFM1 specific peptidase 1),DRSC04958,0.19,,,,
pirk (poor Imd response upon knock-in),DRSC04269,-0.09,0.19,,,
p23,DRSC15158,0.83,0.75,,,
CG15916,DRSC19740,0.41,0.45,,,
CG10562,DRSC14257,0.11,0.43,,,
"SmydA-1 (SET and MYND domain containing, arthropod-specific, member 1)",DRSC07200,0.17,0.21,,,
Jhbp6 (Juvenile hormone binding protein 6),DRSC11714,0.45,0.54,,,
"GAPsec (GTPase activating protein, SECIS-dependent read-through)",DRSC10564,0.13,-0.07,,,
CG9067,DRSC07328,0.32,-0.03,,,
CycB3 (Cyclin B3),DRSC16618,0.1,0.2,,,
CG33285,DRSC11463,-0.77,0.23,,,
mthl1 (methuselah-like 1),DRSC19905,0.22,-0.03,,,
CG13659,DRSC14660,0.24,0.22,,,
Spn27A (Serpin 27A),DRSC03608,-0.28,-0.26,,,
CG17776,DRSC18136,0.33,0.14,,,
CG13857,DRSC14707,0.37,0.24,,,
CG13308,DRSC09979,0.13,0.26,,,
MBD-like (Methyl-CpG binding domain protein-like),DRSC16996,0.37,0.46,,,
CG6972,DRSC16159,0.38,0.35,,,
Cyp310a1 (Cytochrome P450 310a1),DRSC03301,0.38,0.37,,,
CG12546 + CG14452,DRSC11709,0.27,0.14,,,
alien,DRSC03482,-1.22,-0.55,,,
CG33235,DRSC19641,0.35,0.47,,,
CG5645,DRSC10532,-0.25,-0.35,,,
eIF2Balpha (eukaryotic translation initiation factor 2B subunit alpha),DRSC16332,0.22,0.36,,,
Dmtn (Dementin),DRSC12513,0.37,0.07,,,
GluProRS (Glutamyl-prolyl-tRNA synthetase),DRSC14095,0.13,-1.25,,,
PIG-A (Phosphatidylinositol glycan anchor biosynthesis class A),DRSC06982,0.28,0.26,,,
peng (penguin),DRSC20583,0.31,0.39,,,
asRNA:CR31514 + CG12947,DRSC14575,0.17,0.32,,,
CG14995,DRSC08452,-1.09,-1.02,,,
GC (gamma-glutamyl carboxylase),DRSC08396,0.33,0.27,,,
CG6978,DRSC18409,0.34,0.16,,,
CG43078,DRSC10292,0.62,0.4,,,
CG43078,DRSC10608,0.62,0.2,,,
CG43078,DRSC21541,0,-0.43,,,
CG43078,DRSC22327,-0.57,-0.22,,,
nej (nejire),DRSC18006,-3.52,-3.23,,,reduced secretion
nej (nejire),DRSC18801,-3.61,-2.53,,,reduced secretion
garz (gartenzwerg),DRSC07193,-3.68,-4.56,,,reduced secretion
tsu (tsunagi),DRSC07265,0.23,0.37,,,
CG4953,DRSC02792,0.48,0.35,,,
CG42307 + mus312,DRSC11008,0.43,0.36,,,
CG18128,DRSC04304,0.33,0.33,,,
ND-18 (NADH dehydrogenase (ubiquinone) 18 kDa subunit),DRSC19441,0.09,0.28,,,
Prp8 (pre-mRNA processing factor 8),DRSC07293,-4.58,-2.57,,,reduced secretion
CG12917,DRSC06231,0.25,0.06,,,
CG5274,DRSC11774,0.63,0.52,,,
